Source: the supplement of paper PMC7752906
Where a name gives a salt, the structure may show the parent alone. The list shows a part of the results. Single values are uncertain here, since repeats match poorly.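 Test system: Schistosoma mansoni schistosomula, roughly 40 per well, imaged in bright field over time and compared with wells given 0.1% DMSO. Distance read-out: the paper calls a drug a hit when its Mahalanobis distance is at least 2.47, three standard deviations above the DMSO control mean. Degeneracy is the share of worms classified opaque.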

Tested on: Schistosoma mansoni schistosomula
Assay: Mahalanobis distance of static-rate-frequency phenotype descriptors from DMSO controls (dimensionless); higher = stronger phenotypic change versus DMSO
Conditions: 10 µM; 72 h

Structure (SMILES)	Mahalanobis distance
CC(=O)Oc1c(C)c(C)c2c(c1C)CCC(C)(CCCC(C)CCCC(C)CCCC(C)C)O2 (stereo not drawn) [Alpha-tochopheryl Acetate]	inactive: 1.68
C=CC1=C(C(=O)O)N2C(=O)[C@@H](NC(=O)/C(=N\OCC(=O)O)c3csc(N)n3)[C@H]2SC1 [Cefixime]	inactive: 2.4
OCCOCCN1CCN(C(c2ccccc2)c2ccc(Cl)cc2)CC1 (stereo not given) [Hydroxyzine]	active: 3.07
CC(C)COC(=O)c1ccc(N)cc1 [Isobutamben]	active: 4.67
Cc1ccccc1N1C(=O)c2cc(S(N)(=O)=O)c(Cl)cc2NC1C (stereo not given) [Metolazone]	inactive: 1.84
Cc1cc(-n2c(=O)[nH]c(=O)n(C)c2=O)ccc1Oc1ccc(SC(F)(F)F)cc1 [Toltrazuril]	active: 3.15
O=NN(CCCl)C(=O)NC1CCCCC1 [Lomustine]	active: 7.24
COc1ccccc1O [Guaiacol]	inactive: 1.86
CCCCC(C)(O)C/C=C/[C@H]1[C@H](O)CC(=O)[C@@H]1CCCCCCC(=O)OC (mixture of isomers) [Misoprostol]	inactive: 2.12
COc1cnc(NS(=O)(=O)c2ccc(N)cc2)nc1 [Sulfameter]	inactive: 1.99
O=C(O)CCC(=O)Nc1ccc(S(=O)(=O)Nc2nccs2)cc1 [Succinylsulfathiazole]	inactive: 1.52
CN(C)[C@@H]1C(O)=C(C(N)=O)C(=O)[C@@]2(O)C(O)=C3C(=O)c4c(O)ccc(Cl)c4[C@@](C)(O)[C@H]3C[C@@H]12 [Chlortetracycline]	active: 2.9
O=C1OC2(c3ccc(O)cc3Oc3cc(O)ccc32)c2ccccc21 [Fluorescein]	inactive: 2.43
CN1[C@@H](CC(=O)c2ccccc2)CCC[C@H]1C[C@H](O)c1ccccc1 [Lobeline]	inactive: 2.18
OC[C@@H](O)[C@@H](O[C@@H]1O[C@H](CO)[C@H](O)[C@H](O)[C@H]1O)[C@H](O)[C@@H](O)CO [Lacitol]	inactive: 1.86
OC[C@@H](O)[C@@H](O[C@@H]1O[C@H](CO)[C@H](O)[C@H](O)[C@H]1O)[C@H](O)[C@@H](O)CO [D-lactitol Monohydrate]	inactive: 1.71
COc1ccc(C(=O)c2ccc(C)cc2)c(O)c1 [Mexeneone]	active: 2.85
NC(=O)NC(=O)Cc1ccccc1 [Phenacemide]	inactive: 1.11
CC(=O)[C@H]1CC[C@H]2[C@@H]3C[C@H](C)C4=CC(=O)CC[C@]4(C)[C@H]3[C@@H](O)C[C@]12C [Medrysone]	inactive: 2.15
CCOC(=O)OC(C)OC1=C(C(=O)Nc2ccccn2)N(C)S(=O)(=O)c2ccccc21 (stereo not given) [Ampiroxicam]	inactive: 2.24
O=C(O)c1cc(-c2ccc(F)cc2F)ccc1O [Diflunisal]	inactive: 1.88
CCCCNC(=O)NS(=O)(=O)c1ccc(C)cc1 [Tolbutamide]	inactive: 1.45
CC(C)(C)NC[C@H](O)c1ccc(O)c(CO)c1 [Levalbuterol Hydrochloride]	inactive: 1.48

Structure (SMILES)	Mahalanobis distance
O=S(=O)(O)CCS [Mesna]	inactive: 1.73
CCn1cc(C(=O)O)c(=O)c2cnc(N3CCCC3)nc21 [Piromidic Acid]	inactive: 2
CCCCCCCCCCCCC[N+](C)(C)Cc1ccccc1 [Benzalkonium Chloride]	active: 3.27
CC(=O)Nc1ccc(CC(=O)O)cc1 [Actarit]	inactive: 1.6
Cc1nc2n(c(=O)c1CCN1CCC(c3noc4cc(F)ccc34)CC1)CCCC2 [Risperidone]	inactive: 1.31
CC(=O)OCC(=O)[C@@]12N=C(C)O[C@@H]1C[C@H]1[C@@H]3CCC4=CC(=O)C=C[C@]4(C)[C@H]3[C@@H](O)C[C@@]12C [Deflazacort]	active: 2.47
OCc1cc(C(O)CNCCCCCCOCCCCc2ccccc2)ccc1O (stereo not given) [Salmeterol]	active: 3.14
CCCCOc1cc(C(=O)NCCN(CC)CC)c2ccccc2n1 [Dibucaine]	active: 3.55
CC[C@H]1OC(=O)[C@H](C)C(=O)[C@H](C)[C@@H](O[C@@H]2O[C@H](C)C[C@H](N(C)C)[C@H]2O)[C@](C)(OC)C[C@@H](C)C(=O)[C@H](C)[C@H]2N(CCCCn3cnc(-c4cccnc4)c3)C(=O)O[C@]12C [Telithromycin]	active: 2.48
O=P(O)(O)C(Cl)(Cl)P(=O)(O)O [Clodronic Acid]	inactive: 1.57
O=C1CCc2cc(OCCCCc3nnnn3C3CCCCC3)ccc2N1 [Cilostazol]	active: 2.64
CCS(=O)(=O)CCn1c([N+](=O)[O-])cnc1C [Tinidazole]	inactive: 2.17
CC(C)NCC(O)COc1cccc2ccccc12 (stereo not given) [Propranolol]	inactive: 2.1
COC(=O)[C@@H]1[C@H]2C[C@H]3c4[nH]c5ccccc5c4CCN3C[C@@H]2CC[C@@H]1O [Yohimbine Hydrochloride]	active: 3.17
COC(=O)[C@@H]1[C@H]2C[C@H]3c4[nH]c5ccccc5c4CCN3C[C@@H]2CC[C@@H]1O [Yohimbine]	active: 3.54
CC1(C)NC(=O)N(c2ccc([N+](=O)[O-])c(C(F)(F)F)c2)C1=O [Nilutamide]	inactive: 1.77
CCCCOC(=O)c1ccc(N)cc1 [Butamben]	inactive: 1.96
O=C(Nc1ccc(C(=O)O)c(O)c1)c1ccccc1 [Benzoylpas]	inactive: 1.8
CCCCC1=NC2(CCCC2)C(=O)N1Cc1ccc(-c2ccccc2-c2nnn[nH]2)cc1 [Irbesartan]	inactive: 2.09
CC[C@H]1OC(=O)[C@H](C)[C@@H](O[C@H]2C[C@@](C)(OC)[C@@H](O)[C@H](C)O2)[C@H](C)[C@@H](O[C@@H]2O[C@H](C)C[C@H](N(C)C)[C@H]2O)[C@](C)(OC)C[C@@H](C)C(=O)[C@H](C)[C@@H](O)[C@]1(C)O [Clarithromycin]	inactive: 2.15
CC(Cc1ccccc1)(NC(=O)CN)c1ccccc1 (stereo not given) [Remacemide Hydrochloride]	active: 2.65
COc1ccc(Cc2cnc(N)nc2N)cc1OC [Diaveridine]	active: 2.89

Some of the entries so far, in CSV form.
Structure (SMILES),Mahalanobis distance
CCS(=O)(=O)CCn1c([N+](=O)[O-])cnc1C [Tinidazole],inactive: 2.17
COC(=O)[C@@H]1[C@H]2C[C@H]3c4[nH]c5ccccc5c4CCN3C[C@@H]2CC[C@@H]1O [Yohimbine],active: 3.54
O=C(Nc1ccc(C(=O)O)c(O)c1)c1ccccc1 [Benzoylpas],inactive: 1.8
